Measured data: PubChem BioAssay AID504793 (Drosophila RNAi Screening Center, 2011)
Assay: 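Whole-genome screen for parts of the DNA damage checkpoint at G2/M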 (primary screen). Cells: Drosophila S2R+ cells. Reagent: long dsRNA against Drosophila genes, about 0.25 µg dsRNA per well. Duration: 4 days of dsRNA, then 4 hours of drug before read-out. Treatment: doxorubicin 0.5 µM for 4 hours to cause double-strand breaks, in cells also given a low, harmless dose of dsRNA against nbs to sensitise the assay. Read-out: 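Mitotic index as the number of phospho-histone H3-positive cells in each well following doxorubicin, given as raw counts without normalisation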. Reading the numbers: mitotic cells: higher = more cells in mitosis, weaker G2 arrest. Call rule: 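a call needs confirmation in secondary tests, with other dsRNAs and a check of mitotic timing without damage, not just a high primary count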. Calls: active = confirmed in follow-up tests; inactive = not confirmed.
In all, the deposit lists about 23,000 reagents; below is an unselected part of those with a known target gene and a result. Of all reagents, 62 (0.27%) got an active call. 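Calls come from follow-up tests whose scores are not deposited, so confirmed genes may have low counts here; counts are not normalised per plate.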 Raw values vary from plate to plate and are shown uncorrected. Names joined by + are all predicted targets of the reagent.

predicted target | amplicon | mitotic cells, replicate 1 | mitotic cells, replicate 2 | call
CG6236 | DRSC15999 | 5 | – | inactive
mex1 | DRSC11368 | 10 | – | inactive
CG11566 (retired record) + stg1 | DRSC20473 | 2 | – | inactive
CG11566 (retired record) + stg1 | DRSC20481 | 10 | – | inactive
CG11566 (retired record) + stg1 | DRSC20482 | 7 | – | inactive
CG11566 (retired record) + stg1 | DRSC20483 | 9 | – | inactive
CG5376 | DRSC15782 | 11 | – | inactive
CG5376 | DRSC29433 | 2 | – | inactive
asRNA:CR31084 | DRSC21649 | 15 | – | inactive
GCS2beta | DRSC02960 | 4 | – | inactive
GCS2beta | DRSC30037 | 5 | – | inactive
Cont | DRSC12149 | 7 | – | inactive
prt | DRSC16894 | 17 | – | inactive
CG12486 (retired record) | DRSC09888 | 4 | – | inactive
CG12486 (retired record) | DRSC29802 | 1 | – | inactive
CG9815 | DRSC04567 | 2 | – | inactive
CG9815 | DRSC25175 | 6 | – | inactive
Pgant9 | DRSC05621 | 19 | – | inactive
Pgant9 | DRSC06584 | 4 | – | inactive
Pgant9 | DRSC07185 | 7 | – | inactive
Pgant9 | DRSC07186 | 7 | – | inactive
Pgant9 | DRSC07187 | 9 | – | inactive
Pgant9 | DRSC07189 | 5 | – | inactive
Agpat3 | DRSC10445 | 6 | – | inactive
Ids | DRSC08222 | 5 | – | inactive
Ir67c | DRSC22097 | 8 | – | inactive
Cpr64Ac | DRSC08462 | 8 | – | inactive
Cpr64Ac | DRSC27976 | 5 | – | inactive
CG6503 | DRSC16056 | 4 | – | inactive
CG6503 | DRSC29619 | 7 | – | inactive
Brms1 | DRSC19896 | 13 | – | inactive
Gmer | DRSC04376 | 5 | – | inactive
Gmer | DRSC28925 | 12 | – | inactive
Menl-2 + Menl-1 | DRSC07469 | 5 | – | inactive
Menl-2 + Menl-1 | DRSC07470 | 1 | – | inactive
Menl-2 + Menl-1 | DRSC29015 | 6 | – | inactive
Trf4-2 | DRSC15237 | 10 | – | inactive
Trf4-2 | DRSC25949 | 8 | – | inactive
Fmr1 | DRSC16674 | 4 | – | inactive
Fmr1 | DRSC26781 | 6 | – | inactive
Osi2 | DRSC12174 | 8 | – | inactive
Osi2 | DRSC28374 | 4 | – | inactive
Ndc80 | DRSC20221 | 13 | – | inactive
Ndc80 | DRSC21726 | 15 | – | inactive
Hex-t2 | DRSC22517 | 8 | – | inactive
Hex-t2 | DRSC28247 | – | – | inactive
Or13a | DRSC20265 | 11 | – | inactive
Hexim | DRSC15490 | 5 | – | inactive
Fbxl4 | DRSC19805 | 9 | – | inactive
osi | DRSC02931 | 8 | 13 | inactive

A run of entries from the list above, as a working copy:
predicted target | amplicon | mitotic cells, replicate 1 | mitotic cells, replicate 2 | call
CG5376 | DRSC29433 | 2 | – | inactive
asRNA:CR31084 | DRSC21649 | 15 | – | inactive
GCS2beta | DRSC02960 | 4 | – | inactive
GCS2beta | DRSC30037 | 5 | – | inactive
Cont | DRSC12149 | 7 | – | inactive
prt | DRSC16894 | 17 | – | inactive
CG12486 (retired record) | DRSC09888 | 4 | – | inactive
CG12486 (retired record) | DRSC29802 | 1 | – | inactive
CG9815 | DRSC04567 | 2 | – | inactive

The results go on.
predicted target | amplicon | mitotic cells, replicate 1 | mitotic cells, replicate 2 | call
GILT3 | DRSC14672 | 8 | – | inactive
Eig71Ee | DRSC11152 | 6 | – | inactive
jeb | DRSC06305 | 7 | – | inactive
jeb | DRSC06307 | 3 | – | inactive
jeb | DRSC26882 | 1 | – | inactive
Pde8 | DRSC04503 | 7 | – | inactive
Pde8 | DRSC29684 | 7 | – | inactive
CalpB | DRSC11109 | 6 | – | inactive
CalpB | DRSC25885 | 12 | – | inactive
nvy | DRSC04705 | 3 | 13 | inactive
Wnk | DRSC23372 | 1 | – | inactive
inaF-B | DRSC18903 | 9 | – | inactive
AkhR | DRSC03329 | 3 | – | inactive
AkhR | DRSC28694 | 3 | – | inactive
CG11672 | DRSC14344 | 11 | – | inactive
CG8204 | DRSC07106 | 9 | – | inactive
CG33332 | DRSC15504 | 5 | – | inactive
CG33332 | DRSC27661 | 17 | – | inactive
CG13978 | DRSC14720 | 10 | – | inactive
csw | DRSC18756 | 9 | – | inactive
csw | DRSC23326 | 14 | – | inactive
csw | DRSC36600 | 9 | – | inactive
CG15098 | DRSC06527 | 10 | – | inactive
CG15098 | DRSC29966 | 7 | – | inactive
CG1532 | DRSC20516 | 4 | – | inactive
